Test results as given in article PMC11724075, “Small-molecule-induced ERBB4 activation to treat heart failure” (Nature Communications, 2025).
Certain results were filed several times, with different values. Only these are listed. An entry can have further records. For some of these results: Values that stand side by side read as repeated measurements (runs, samples, wells or individuals). For some of these results: The values listed for one entry appear to be repeats (runs, samples, wells or individuals); a mean can stand among them.

Sequences of proteins named here, by UniProt entry; tags and fusion partners are left off. Residues count along the entry.
UniProt Q15303, 26-1308 limits assumed: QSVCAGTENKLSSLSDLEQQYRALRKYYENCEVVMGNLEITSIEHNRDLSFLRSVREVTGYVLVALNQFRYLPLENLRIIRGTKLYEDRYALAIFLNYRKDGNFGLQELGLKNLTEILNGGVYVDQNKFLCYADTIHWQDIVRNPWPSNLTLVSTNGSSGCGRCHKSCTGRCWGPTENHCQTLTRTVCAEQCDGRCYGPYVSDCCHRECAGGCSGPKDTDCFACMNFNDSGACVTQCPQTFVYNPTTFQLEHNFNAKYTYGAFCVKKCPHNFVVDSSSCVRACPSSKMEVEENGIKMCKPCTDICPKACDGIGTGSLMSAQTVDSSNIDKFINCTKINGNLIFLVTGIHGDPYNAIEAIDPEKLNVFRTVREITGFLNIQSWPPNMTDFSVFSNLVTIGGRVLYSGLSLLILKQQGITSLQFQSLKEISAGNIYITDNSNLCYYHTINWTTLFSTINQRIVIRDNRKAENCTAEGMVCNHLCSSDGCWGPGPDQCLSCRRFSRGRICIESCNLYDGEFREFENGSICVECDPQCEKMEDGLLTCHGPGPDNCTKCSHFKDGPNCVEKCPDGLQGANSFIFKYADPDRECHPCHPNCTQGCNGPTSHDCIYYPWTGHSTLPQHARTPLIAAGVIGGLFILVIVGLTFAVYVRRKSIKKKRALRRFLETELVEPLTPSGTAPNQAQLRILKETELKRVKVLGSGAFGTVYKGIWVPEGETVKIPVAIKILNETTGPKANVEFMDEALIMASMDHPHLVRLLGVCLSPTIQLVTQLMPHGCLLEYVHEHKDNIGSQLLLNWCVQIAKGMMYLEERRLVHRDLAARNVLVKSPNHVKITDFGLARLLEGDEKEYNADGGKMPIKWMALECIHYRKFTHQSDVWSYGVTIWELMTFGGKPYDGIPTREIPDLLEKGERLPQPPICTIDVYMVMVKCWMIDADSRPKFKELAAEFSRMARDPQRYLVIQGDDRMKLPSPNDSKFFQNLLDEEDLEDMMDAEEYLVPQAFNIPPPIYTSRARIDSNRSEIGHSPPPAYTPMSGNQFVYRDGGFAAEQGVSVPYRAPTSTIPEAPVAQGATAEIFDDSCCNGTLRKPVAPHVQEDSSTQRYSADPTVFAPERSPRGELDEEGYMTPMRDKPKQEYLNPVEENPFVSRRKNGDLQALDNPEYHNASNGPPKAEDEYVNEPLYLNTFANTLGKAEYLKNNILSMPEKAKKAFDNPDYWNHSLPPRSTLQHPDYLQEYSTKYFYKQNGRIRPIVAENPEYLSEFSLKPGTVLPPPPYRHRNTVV

Legend:
mouse model of MI [1] = test: Mouse model of MI, histology: CSA, capillaries, interstitial fibrosis, scar size; details: MI experiment, MI/EF-1
Procedure: (§1) Twelve-week-old female and male Balb/cJ (Charles River, 000651) mice were randomized into either the ctrl or MI group. Mice in the MI group underwent surgical ligation of the LAD, while mice in the ctrl group underwent a sham procedure (n = 8 female mice, n = 10 male mice). Briefly, all mice received an injection of 0.1 mg/kg buprenorphine (Produlab Pharma) before induction of anesthesia with 8% sevoflurane (Zoetis). Anesthesia was maintained with 4.5% sevoflurane and mice were intubated and ventilated. An incision of 15 mm was made on the left side of the thorax and the thoracic cavity was opened at the third intercostal space using blunt forceps. The LAD was permanently ligated with a 8/0 polypropylene monofilament sutures (Ethicon, F1894) after which the thoracic cavity and skin were closed with 6/0 polypropylene monofilament sutures (Ethicon, F1841). and 5/0 polyamide 6 sutures (Ethilon, F2412H), respectively. Mice received another dose of 0.1 mg/kg buprenorphine 6–8 h after the initial dose. Two days after surgery, cardiac ultrasound was performed to exclude mice without successful MI (i.e. displaying hypokinesia in ≥2 out of 5 segments). Mice with successful MI were randomized into 2 groups: an MI/EF-1 group (n = 9 female mice, n = 10 male mice) and an MI/Veh group (n = 8 female mice, n = 12 male mice). Seven days after MI surgery, the mice were equipped with osmotic mini-pumps containing either EF-1 (2 mg/kg/day) or Veh, as described above. Cardiac ultrasound was performed weekly. After 4 weeks of treatment, mice were euthanized, and hearts were collected.
Hearts were fixed in 4% PFA, paraffin-embedded, and cut into 5-µm sections. Images were acquired with an Olympus BX43 microscope (Olympus Stream Motion Software) or a CELENA® S Digital Imaging System and analyzed with ImageJ 2.14.0 software. Collagen distribution was visualized by Masson’s trichrome staining. Cardiac total fibrosis was expressed as the ratio of positively stained fibrotic area (blue) to the total area and perivascular fibrosis as the ratio of fibrotic area to vascular lumen area. Scar size was determined by measuring the scar length over the […]. Hypertrophy and vascularisation were visualized via an isolectin-B4/WGA/DAPI staining. Quantification was performed by a person blinded to the treatment protocol.

mouse model of MI [2] = test: Mouse model of MI (LAD ligation), echocardiography; parameters: left-ventricular end-diastolic volume / left-ventricular end-systolic volume: unit not given here
Procedure: as §1
Echocardiography was performed using the Vevo F2-LAZRX (FUJIFILM VisualSonics) and UHF57x probe. Mice were anesthetized with 1.5% isoflurane (Alvira, BE-V512222). Parasternal long-axis B-mode images and M-mode images were obtained and analyzed using VevoLAB software (FUJIFILM VisualSonics, Version 5.7.1). For the AngII experiments, measurements were obtained through analysis of the short-axis M-mode. For the MI experiments, measurements were obtained through analysis of the parasternal long-axis B-mode, of which the area and end-volume of the left ventricular cavity in diastole and systole were determined by tracing the endocardial border. Acquisitions, measurements and analyses were performed blinded.
Supplementary Table 2. Echocardiographic parameters. […]
Echocardiographic parameters obtained through left ventricular trace analysis of the parasternal long-axis obtained in B-mode in female wild-type mice that underwent a sham or MI operation: mice with […]
the MI were treated with Veh or EF-1 (n=8 female mice in Ctrl and MI/Veh group and n=9 female mice […]
in MI/EF-1 group). (g) Echocardiographic parameters obtained through left ventricular trace analysis of the parasternal long-axis obtained in B-mode in male wild-type mice that underwent a sham or MI […]
operation: mice with the MI were treated with Veh or EF-1 (n=5 male mice in Ctrl and MI/EF-1 group […]
and n=6 male mice in MI/Veh group for T0 and T3; n=10 male mice in Ctrl and MI/EF-1 group and n=12 […]
male mice in MI/Veh group for T2 and T4). Echocardiographic parameters were measured weekly (indicated by ‘T’). All data are presented as mean (value of individual mice) ± SD, two-tailed unpaired […]
1 groups. Source data are provided as a Source Data file. AngII, angiotensin II; ANOVA, analysis of variance; Ctrl, control; DOX, doxorubicin; EF, ejection fraction; ERBB4, erythroblastic leukemia viral oncogene homolog 4; FS, fractional shortening; IVSd, interventricular septum thickness in diastole; IVSs, interventricular septum thickness in systole; LVIDd, left ventricular internal diameter in diastole; LVIDs, left ventricular internal diameter in systole; LVPWd, left ventricular posterior wall thickness in diastole; LVPWs, left ventricular posterior wall thickness in systole; MI, myocardial infarction; NA, non-activating pharmacophore-containing compound; SD, standard variation; Veh, vehicle.

ERBB4/ERBB4 = ERBB4/ERBB4 (Homo sapiens, UniProt Q15303); test: NRG1 dose-response in ERBB4/ERBB4 dimerization assay with co-administration of EF-1
[3] = female mice, MI/EF-1, 0 weeks after MI
[4] = female mice, MI/EF-1, 2 weeks after MI
[5] = female mice, MI/EF-1, 3 weeks after MI
[6] = female mice, MI/EF-1, 4 weeks after MI

SMILES: O=C(NC1CC1)C(Sc1nc2ccccc2c(=O)n1C1CCCC1)c1ccccc1 (stereo not shown) [EF-1]
- scar size (mouse model of MI [1]; female mice): 0.5651, 0.1876, 0.5268, 0.5015, 0.4073, 0.1392, 0.2913
- capillary density (#cap./100 CMs) (mouse model of MI [1]; male mice): 197.943 #cap./100 CMs, 186.963 #cap./100 CMs, 191.856 #cap./100 CMs, 207.355 #cap./100 CMs, 187.043 #cap./100 CMs, 194.913 #cap./100 CMs, 170.533 #cap./100 CMs, 203.32 #cap./100 CMs, 201.604 #cap./100 CMs
- capillary density (#cap./area) (mouse model of MI [1]; male mice): 4.5427, 3.8306, 4.232, 4.202, 3.113, 3.634, 3.389, 4.326, 3.992, 4.588 #cap./area
- scar size (mouse model of MI [1]; male mice): 0.4695, 0.6871, 0.5279, 0.6132, 0.3511, 0.7867, 0.4775, 0.5059
- ejection fraction (mouse model of MI [2]; [3]): 33.0877, 50.5573, 54.0984, 31.1777, 37.2522, 48.5332, 47.3543, 44.4856, 37.896
- left-ventricular end-diastolic volume (mouse model of MI [2]; [3]): 58.8001, 54.9123, 55.7638, 60.8114, 66.2701, 52.1758, 60.1413, 47.5633, 54.1349
- ejection fraction (mouse model of MI [2]; [4]): 45.1557, 43.4466, 25.4376, 22.6843, 35.9648, 36.135, 6.615, 23.3879, 7.577
- left-ventricular end-diastolic volume (mouse model of MI [2]; [4]): 64.076, 72.9718, 78.1864, 64.442, 85.7705, 59.9084, 83.8099, 77.9265, 75.4936
- left-ventricular end-systolic volume (mouse model of MI [2]; [4]): 35.142, 41.2681, 58.2977, 49.8237, 54.9233, 38.2605, 78.2661, 59.7011, 69.7734
- ejection fraction (mouse model of MI [2]; [5]): 33.3567, 47.2434, 28.4489, 39.4528, 50.1808, 15.2547, 14.3049, 30.9326, 30.6095
- left-ventricular end-systolic volume (mouse model of MI [2]; [5]): 40.3267, 25.8483, 74.6131, 34.5752, 33.9853, 94.0317, 89.3367, 58.8762, 57.7933
- ejection fraction (mouse model of MI [2]; [6]): 52.3808, 37.7496, 24.961, 30.8316, 37.6415, 33.8986, 21.3873, 36.615, 29.73
- left-ventricular end-diastolic volume (mouse model of MI [2]; [6]): 64.4166, 73.1454, 83.8732, 57.7855, 48.3682, 88.9757, 96.0389, 68.2596, 99.1762
- left-ventricular end-systolic volume (mouse model of MI [2]; [6]): 30.6746, 45.5333, 62.9376, 39.9693, 30.1617, 58.8142, 75.4988, 43.2664, 69.6911
- ejection fraction (mouse model of MI [2]; male mice, MI/EF-1, 2 weeks after MI): 32.5616, 21.1246, 8.7356, 36.3357, 37.8712, 27.3585, 37.9267, 7.0431, 12.98, 9.851
- ejection fraction (mouse model of MI [2]; male mice, MI/EF-1, 4 weeks after MI): 37.0676, 14.516, 18.3224, 35.5301, 6.862, 23.6561, 37.959, 12.2588, 31.7278, 33.988
- Chemiluminescence-based competition assay with NRG1 and EF-1, signal (ERBB4/ERBB4; EF-1 1 µM, NRG1 3e-11 M): 5.692, 4.638, 7.724
- Chemiluminescence-based competition assay with NRG1 and EF-1, signal (ERBB4/ERBB4; EF-1 1 µM, NRG1 1e-10 M): 15.2907, 5.393, 13.1212
- Chemiluminescence-based competition assay with NRG1 and EF-1, signal (ERBB4/ERBB4; EF-1 1 µM, NRG1 3e-10 M): 15.1436, 6.566, 15.7973
- Chemiluminescence-based competition assay with NRG1 and EF-1, signal (ERBB4/ERBB4; EF-1 1 µM, NRG1 1e-9 M): 25.6403, 6.583, 41.6472, 54.5286, 23.2908, 11.3267
- Chemiluminescence-based competition assay with NRG1 and EF-1, signal (ERBB4/ERBB4; EF-1 1 µM, NRG1 3e-9 M): 25.0517, 6.668, 43.6805, 44.6281, 28.2121, 13.0951
- Chemiluminescence-based competition assay with NRG1 and EF-1, signal (ERBB4/ERBB4; EF-1 1 µM, NRG1 1e-8 M): 66.7686 and 16.7656
- Chemiluminescence-based competition assay with NRG1 and EF-1, signal (ERBB4/ERBB4; EF-1 1 µM, NRG1 3e-8 M): 70.7908, 36.1271, 136.734
- Chemiluminescence-based competition assay with NRG1 and EF-1, signal (ERBB4/ERBB4; EF-1 1 µM, NRG1 1e-7 M): 71.9189 and 81.4323
- Chemiluminescence-based competition assay with NRG1 and EF-1, signal (ERBB4/ERBB4; EF-1 10 µM, NRG1 3e-11 M): 35.72, 23.3366, 72.3411, 72.0383, 38.3484
- Chemiluminescence-based competition assay with NRG1 and EF-1, signal (ERBB4/ERBB4; EF-1 10 µM, NRG1 1e-10 M): 40.5514, 28.7737, 77.3197, 74.4709, 49.9159
- Chemiluminescence-based competition assay with NRG1 and EF-1, signal (ERBB4/ERBB4; EF-1 10 µM, NRG1 3e-10 M): 47.4675, 32.2491, 71.474, 71.4584, 57.1084
- Chemiluminescence-based competition assay with NRG1 and EF-1, signal (ERBB4/ERBB4; EF-1 10 µM, NRG1 1e-9 M): 57.768 and 35.7302
- Chemiluminescence-based competition assay with NRG1 and EF-1, signal (ERBB4/ERBB4; EF-1 10 µM, NRG1 3e-9 M): 58.1113, 36.4275, 106.384
- Chemiluminescence-based competition assay with NRG1 and EF-1, signal (ERBB4/ERBB4; EF-1 10 µM, NRG1 1e-8 M): 104.954 and 52.8578
- Chemiluminescence-based competition assay with NRG1 and EF-1, signal (ERBB4/ERBB4; EF-1 10 µM, NRG1 3e-8 M): 90.9503 and 94.0753
- Chemiluminescence-based competition assay with NRG1 and EF-1, signal (ERBB4/ERBB4; EF-1 32 µM, NRG1 1e-10 M): 58.5037, 27.362, 72.5355
- Chemiluminescence-based competition assay with NRG1 and EF-1, signal (ERBB4/ERBB4; EF-1 32 µM, NRG1 3e-9 M): 93.7707, 39.3984, 80.8481
- Chemiluminescence-based competition assay with NRG1 and EF-1, signal (ERBB4/ERBB4; EF-1 32 µM, NRG1 1e-8 M): 60.3416 and 74.7482
